Results: PMC12647448
No constants are given. Whether binding was seen depends on the method and setting. Binding seen in cells or lysates may run through a third protein. Some binding calls cover weakened binding; strength is not graded here.

The chains behind the UniProt entries cited, without tags or fusion partners.
UniProt Q13283: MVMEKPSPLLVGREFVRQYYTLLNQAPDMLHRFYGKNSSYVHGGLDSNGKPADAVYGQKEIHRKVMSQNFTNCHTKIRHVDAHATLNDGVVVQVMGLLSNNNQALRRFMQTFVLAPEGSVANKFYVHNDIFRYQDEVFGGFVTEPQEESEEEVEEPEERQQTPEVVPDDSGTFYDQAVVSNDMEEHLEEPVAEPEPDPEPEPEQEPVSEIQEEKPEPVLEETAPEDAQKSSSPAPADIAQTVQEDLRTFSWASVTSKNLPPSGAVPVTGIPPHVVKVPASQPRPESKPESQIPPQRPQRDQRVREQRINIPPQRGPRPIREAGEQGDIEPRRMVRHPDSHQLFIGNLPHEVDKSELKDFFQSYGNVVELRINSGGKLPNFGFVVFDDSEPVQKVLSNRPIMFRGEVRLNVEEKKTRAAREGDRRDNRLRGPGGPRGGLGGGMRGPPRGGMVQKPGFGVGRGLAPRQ
UniProt P06730: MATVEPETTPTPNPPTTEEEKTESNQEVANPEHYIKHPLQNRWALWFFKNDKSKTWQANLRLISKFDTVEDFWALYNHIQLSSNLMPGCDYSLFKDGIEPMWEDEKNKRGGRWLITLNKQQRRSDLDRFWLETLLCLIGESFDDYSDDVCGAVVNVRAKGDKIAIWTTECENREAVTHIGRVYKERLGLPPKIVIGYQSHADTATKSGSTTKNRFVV

Target: GTPase activating protein (SH3 domain) binding protein 1 (G3BP1) (human (endogenous in U-2 OS)) (UniProt Q13283)
Test: co-IP; U-2 OS cells with or without stress (arsenite, heat shock, UV); which protein was precipitated is not told in the text shown

- binding: binds
Substance: eIF4E (from UniProt P06730 1-217)
